Assay results taken from PubChem BioAssay AID2620 (National Center for Advancing Translational Sciences (NCATS), 2010).
The shares of active, inactive and inconclusive entries below differ from those in the screen. Potencies beside an inconclusive call are fits to weak or partial responses and may not hold up. Active and inactive are the calls of the source. Calls follow the shape of the dose curve; as a rule, active = well fitted curve in the direction sought with a large enough effect; inconclusive = small, poorly fitted or top-dose-only effect, or another doubt; inactive = no such curve, though single readings can be large or run the other way.

Protein sequences, listed by entry. Tags and fused reporters are not part of them.
UniProt P14618, whole entry, looked up: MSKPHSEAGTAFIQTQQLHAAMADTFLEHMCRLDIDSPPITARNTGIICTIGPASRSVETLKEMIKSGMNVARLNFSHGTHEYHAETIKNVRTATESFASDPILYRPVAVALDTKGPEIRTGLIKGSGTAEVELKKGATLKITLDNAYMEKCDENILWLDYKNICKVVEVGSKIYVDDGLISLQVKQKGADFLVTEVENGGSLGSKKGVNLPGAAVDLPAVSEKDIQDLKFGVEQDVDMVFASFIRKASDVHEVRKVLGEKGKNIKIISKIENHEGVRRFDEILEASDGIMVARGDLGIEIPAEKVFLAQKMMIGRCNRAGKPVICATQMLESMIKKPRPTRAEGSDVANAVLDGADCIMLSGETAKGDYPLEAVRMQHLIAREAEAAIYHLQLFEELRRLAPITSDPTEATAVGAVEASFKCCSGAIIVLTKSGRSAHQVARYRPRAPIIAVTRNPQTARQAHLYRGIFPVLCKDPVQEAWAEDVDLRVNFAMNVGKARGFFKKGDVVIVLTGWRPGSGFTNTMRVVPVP

What follows are molecules tested against Pyruvate kinase PKM (Homo sapiens) (UniProt P14618) (assay: Secondary LDH Assay for Activators of Human Pyruvate Kinase M1 Isoform: for Probe SAR). Conditions: purified hPK-M1, LDH-coupled NADH fluorescence kinetic; series mostly up to 58.2 µM.
Description: NIH Chemical Genomics Center [NCGC]
Matthew G. Vander Heiden, M.D., Ph.D. [Harvard Medical School, 77 Avenue Louis Pasteur, Boston, MA 02115]
Human pyruvate kinase […] (hPK-M1)enzyme was supplied as a highly purified (>95% pure) preparation from Harvard Medical School and a secondary assay was used to evaluate compounds. This assay couples the formation of pyruvate from […] using lactate dehydrogenase (LDH) and NADH. The depletion of NADH is followed in a fluorescent-based kinetic assay that follows the formation of pyruvate to lactate, as catalyzed LDH. Pyruvate kinase substrates, PEP and ADP, were present in the assay at 0.1 mM and 4 mM respectively. In this kinetic assay initial rates were determined by following the fluorescence of NADH depletion.
NCGC Assay Protocol Summary:
Three uL of substrate mix (final concentration, 50 mM Tris-Cl pH 8.0, 200 mM KCl, 15 mM MgCl2, 0.1 mM PEP, 4.0 mM ADP, and 0.2 mM NADH) was dispensed into black-solid 1536 well plates. 23 nL of compounds were delivered by a pin tool and 1 uL of enzyme mix (final concentrations, 10 nM hPK-M1 and 1 uM of LDH) was added. Plates were immediately placed in ViewLux (Perkin Elmer) and NADH fluorescence was determined at 30 second exposure intervals for between 3 and 6 minutes. Data were normalized to the uninhibited controls.
In the case of COc1ccc(Nc2c(-c3ccc(C)o3)nc3ccccn23)cc1, the Potency is reported as “inactive”.
O=C1c2ccccc2C(=O)N1c1ncccc1O was tested, and the Potency was “inactive”.
With Cc1ccc(Nc2c(-c3ccc(C)s3)nc3ccccn23)cc1 the Potency was inconclusive: 16.3 µM [inhibitor, partial curve].
In the case of Cc1ccc(NS(=O)(=O)c2cc3c(cc2Cl)CCC(=O)N3)cc1C, the Potency is reported as “inactive”.
Cc1ccc2nc(-c3ccc(C)o3)c(Nc3ccccc3)n2c1 was tested, and the Potency was inconclusive: 18.3 µM [inhibitor, partial curve].
In the case of Cc1ccc(Nc2c(-c3ccsc3)nc3c(C)cccn23)cc1, the Potency is reported as inconclusive: 13 µM [inhibitor, partial curve].
For CSc1cc2c(s1)c1cnn(Cc3cccc(N)c3)c(=O)c1n2C, the Potency was “inactive”.
With Cc1ccccc1Nc1c(-c2ccccc2)nc2cccc(C)n12 the Potency was inconclusive: 5.8 µM [inhibitor, partial curve].
COc1ccc(-c2nc3ccccn3c2Nc2ccccc2C)cc1 was tested, and the Potency was inconclusive: 6.51 µM [inhibitor, full curve].
In the case of Cc1ccc(-c2nc3ccccn3c2Nc2ccc(F)cc2)o1, the Potency is reported as inconclusive: 18.3 µM [inhibitor, partial curve].
Cc1ccc(-c2nc3ccccn3c2Nc2ccccc2C)o1 was tested, and the Potency was inconclusive: 20.6 µM [inhibitor, partial curve].
With Cc1ccc(-c2nc3cccc(C)n3c2Nc2ccc(F)cc2)o1 the Potency was inconclusive: 20.6 µM [inhibitor, partial curve].
For Cc1ccn2c(NCc3ccco3)c(-c3ccccc3)nc2c1, the Potency was inconclusive: 32.6 µM [inhibitor, single point].
With Cc1cc(NS(=O)(=O)c2ccc3c(c2)CCC(=O)N3)ccc1Cl the Potency was “inactive”.
